Article PMC13022674

By UniProt entry, the sequences of proteins in these tests, tags left out. Residues count along the entry.
UniProt Q13569, 82-308 A145G: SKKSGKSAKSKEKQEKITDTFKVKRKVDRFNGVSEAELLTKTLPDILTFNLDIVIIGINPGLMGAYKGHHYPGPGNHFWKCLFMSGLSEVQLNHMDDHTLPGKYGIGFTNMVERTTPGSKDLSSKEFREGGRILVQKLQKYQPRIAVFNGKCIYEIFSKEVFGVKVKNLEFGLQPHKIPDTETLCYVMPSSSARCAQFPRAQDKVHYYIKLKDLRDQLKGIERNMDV

Target: TDG A145G (UniProt Q13569)
Assay: 19F NMR
Details: large flipping-induced shift, text says TDG, legend TDG A145G; 2'-deoxy-2'-fluoroarabinothymidine (TF) at strand 1 pos 18; NMR: 0.1 M NaCl, 0.03 mM TCEP, 15 mM Tris-HCl pH 7.5, 10% D2O, 25 C; recombinant protein; residues 82-308

“TGTGTCACCACTGCTCATGTACAGAGCTG / CAGCTCTGTACGTGAGCAGTGGTGACAC [D2-TF]”: binds.

For at least one entry, the source does not settle the construct or the ends of the probe. At least one verdict was read from the data and is not stated in words by the source.
